No constants are given. Whether binding was seen depends on the method and setting. Binding seen in cells or lysates may run through a third protein. These calls come from enrichment with a bait or labelling near it, and not all partners need be listed.
B1: GRP170 (endogenous in H9 CHO cells) (protein, UniProt Q60432 33-999)
chain: LAVMSVDLGSESMKVAIVKPGVPMEIVLNKESRRKTPVTVTLKENERFLGDSAAGMAIKNPKATLRYFQHLLGKQADNPHVALYRDRFPEHELNIDPQRQTVRFQISPQLQFSPEEVLGMVLNYSRSLAEDFAEQPIKDAVITVPAFFNQAERRAVLQAARMAGLKVLQLINDNTATALSYGVFRRKDINSTAQNVMFYDMGSGTTVCTIVTYQTVKTKEAGMQPQLQIRGVGFDRTLGGLEMELRLREHLAKLFNEQRRGQKAKDVRENPRAMAKLLREANRLKTVLSANADHMAQIEGLMDDVDFKAKVTRVESEELCADLFERVPGPVQQALQSAEMSLDEIEQVILVGGATRVPKVQEVLLKAVGKEELGKNINADEAAAMGAVYQAAALSKAFKVKPFVVRDAVIYPILVEFTREVEEEPGVRSLKHNKRVLFSRMGPYPQGKVITFNRYSHDFNFHINYGDLGFLGPEDLRVFGSQNLTTVKLKGVGESLKKYPDYESKGIKAHFNLDESGVLSLDRVESVFETLVEDSPEEESTLTKLGNTISSLFGGGTSSDAKENGTDAVQEEEESPTEGSKDEPGEQGDLKEETEAPVEDTSQPPPPEPKGDAAPEGEKPDEKESGGKSEAQKPEEKGQSGPEGVPPAPEEEKKQKPARKQKMVEEIGVELAVLDLPDLPEDELARSVKKLEDLTLRDLEKQEREKAANSLEAFIFETQDKLYQPEYQEVSTEEQREEISGKLSATSTWLEDEGFGATTVMLKEKLAELKKLCQGLFFRVEERRKWPERLSALDNLLNHSSIFLKGARLIPEMDQIFTEVEMTTLEKVINDTWAWKNATLAEQAKLPATEKPVLLSKDIEAKMMALDREVQYLLNKAKFTKPRPRPKDKNGTRTEPPLNATAGDQEEKVIPPAGQPEEAKPILEPDKEETTTEPTDSEPLELGGPGAESEPKEQTAGQKRSSKNDEL

The chains behind the UniProt entries cited, without tags or fusion partners. Residues count along the entry.
UniProt P00451, residues 20-2351: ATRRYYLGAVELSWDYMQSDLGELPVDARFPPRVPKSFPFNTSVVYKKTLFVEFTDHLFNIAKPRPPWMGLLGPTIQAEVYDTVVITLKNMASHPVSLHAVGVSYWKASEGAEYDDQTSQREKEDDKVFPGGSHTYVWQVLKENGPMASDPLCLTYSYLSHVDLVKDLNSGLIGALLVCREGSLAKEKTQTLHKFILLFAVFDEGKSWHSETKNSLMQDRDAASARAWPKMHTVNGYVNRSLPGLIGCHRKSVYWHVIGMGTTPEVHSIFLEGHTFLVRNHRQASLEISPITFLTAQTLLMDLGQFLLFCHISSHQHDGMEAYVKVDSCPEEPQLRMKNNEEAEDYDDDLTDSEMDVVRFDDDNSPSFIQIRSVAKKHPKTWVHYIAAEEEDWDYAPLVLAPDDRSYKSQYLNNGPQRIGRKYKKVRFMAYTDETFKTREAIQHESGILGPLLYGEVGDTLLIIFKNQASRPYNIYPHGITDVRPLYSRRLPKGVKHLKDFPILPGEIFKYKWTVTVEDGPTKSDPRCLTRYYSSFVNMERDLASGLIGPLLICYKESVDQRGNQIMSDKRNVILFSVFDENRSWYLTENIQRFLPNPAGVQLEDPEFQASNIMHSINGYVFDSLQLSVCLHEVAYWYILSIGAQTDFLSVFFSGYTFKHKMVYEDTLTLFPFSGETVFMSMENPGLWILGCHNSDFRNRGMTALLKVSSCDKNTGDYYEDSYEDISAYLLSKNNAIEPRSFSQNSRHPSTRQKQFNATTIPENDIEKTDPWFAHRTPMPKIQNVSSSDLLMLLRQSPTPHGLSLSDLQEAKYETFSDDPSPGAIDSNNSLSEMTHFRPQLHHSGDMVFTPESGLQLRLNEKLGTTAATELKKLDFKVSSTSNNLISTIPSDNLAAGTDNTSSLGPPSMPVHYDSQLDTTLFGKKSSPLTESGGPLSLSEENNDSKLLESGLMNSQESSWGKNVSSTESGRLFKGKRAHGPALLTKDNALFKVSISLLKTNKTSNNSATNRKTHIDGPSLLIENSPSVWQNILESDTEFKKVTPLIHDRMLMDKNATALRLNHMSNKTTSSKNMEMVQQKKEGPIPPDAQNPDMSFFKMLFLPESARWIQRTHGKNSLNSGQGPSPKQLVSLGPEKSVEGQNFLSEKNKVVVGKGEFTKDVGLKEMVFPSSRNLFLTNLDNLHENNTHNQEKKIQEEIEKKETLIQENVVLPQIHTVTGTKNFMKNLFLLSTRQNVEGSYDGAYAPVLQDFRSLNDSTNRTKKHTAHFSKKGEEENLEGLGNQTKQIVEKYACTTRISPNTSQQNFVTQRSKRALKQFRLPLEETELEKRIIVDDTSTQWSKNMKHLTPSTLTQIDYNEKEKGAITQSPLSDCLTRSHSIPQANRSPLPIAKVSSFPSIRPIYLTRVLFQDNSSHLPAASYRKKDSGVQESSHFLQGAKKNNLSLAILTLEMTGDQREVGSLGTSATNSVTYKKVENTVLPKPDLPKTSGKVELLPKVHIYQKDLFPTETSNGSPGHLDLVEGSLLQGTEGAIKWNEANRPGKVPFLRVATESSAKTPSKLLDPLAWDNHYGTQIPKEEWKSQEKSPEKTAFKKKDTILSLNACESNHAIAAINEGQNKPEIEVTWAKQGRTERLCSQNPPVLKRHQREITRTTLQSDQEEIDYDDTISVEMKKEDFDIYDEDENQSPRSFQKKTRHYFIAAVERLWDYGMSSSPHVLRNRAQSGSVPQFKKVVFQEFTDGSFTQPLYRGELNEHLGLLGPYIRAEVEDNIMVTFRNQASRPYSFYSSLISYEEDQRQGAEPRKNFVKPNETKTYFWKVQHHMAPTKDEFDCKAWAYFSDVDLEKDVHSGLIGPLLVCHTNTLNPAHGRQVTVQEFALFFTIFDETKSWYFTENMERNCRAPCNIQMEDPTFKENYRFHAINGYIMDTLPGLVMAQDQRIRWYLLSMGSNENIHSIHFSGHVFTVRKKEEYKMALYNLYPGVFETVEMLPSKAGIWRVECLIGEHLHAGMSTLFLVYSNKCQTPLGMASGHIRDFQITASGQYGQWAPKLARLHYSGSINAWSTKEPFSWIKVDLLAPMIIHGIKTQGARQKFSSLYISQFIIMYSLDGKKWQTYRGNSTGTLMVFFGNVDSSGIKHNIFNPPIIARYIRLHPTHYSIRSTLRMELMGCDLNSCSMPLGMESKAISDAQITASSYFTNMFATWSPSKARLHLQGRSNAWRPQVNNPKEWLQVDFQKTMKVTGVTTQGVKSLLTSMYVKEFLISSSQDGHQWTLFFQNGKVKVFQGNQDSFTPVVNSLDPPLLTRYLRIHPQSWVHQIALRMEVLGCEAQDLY
UniProt G3I8R9, residues 19-654: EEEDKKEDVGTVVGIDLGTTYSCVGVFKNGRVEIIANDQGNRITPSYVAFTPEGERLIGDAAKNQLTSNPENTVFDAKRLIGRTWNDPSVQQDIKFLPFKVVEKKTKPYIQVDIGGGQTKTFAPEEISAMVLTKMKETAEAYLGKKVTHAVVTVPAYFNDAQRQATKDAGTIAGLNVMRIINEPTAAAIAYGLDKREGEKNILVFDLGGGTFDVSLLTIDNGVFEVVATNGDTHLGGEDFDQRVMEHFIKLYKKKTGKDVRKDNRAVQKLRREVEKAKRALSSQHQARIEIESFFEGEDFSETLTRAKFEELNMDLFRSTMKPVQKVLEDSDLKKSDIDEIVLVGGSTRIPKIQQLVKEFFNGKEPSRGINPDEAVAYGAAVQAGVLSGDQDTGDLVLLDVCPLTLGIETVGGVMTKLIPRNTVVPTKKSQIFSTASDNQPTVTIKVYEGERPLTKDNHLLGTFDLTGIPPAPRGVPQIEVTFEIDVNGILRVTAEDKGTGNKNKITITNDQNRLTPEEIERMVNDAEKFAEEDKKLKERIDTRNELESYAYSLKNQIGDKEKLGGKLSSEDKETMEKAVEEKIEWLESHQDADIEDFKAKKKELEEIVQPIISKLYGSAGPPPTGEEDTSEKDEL
UniProt Q8K3H7, residues 18-417: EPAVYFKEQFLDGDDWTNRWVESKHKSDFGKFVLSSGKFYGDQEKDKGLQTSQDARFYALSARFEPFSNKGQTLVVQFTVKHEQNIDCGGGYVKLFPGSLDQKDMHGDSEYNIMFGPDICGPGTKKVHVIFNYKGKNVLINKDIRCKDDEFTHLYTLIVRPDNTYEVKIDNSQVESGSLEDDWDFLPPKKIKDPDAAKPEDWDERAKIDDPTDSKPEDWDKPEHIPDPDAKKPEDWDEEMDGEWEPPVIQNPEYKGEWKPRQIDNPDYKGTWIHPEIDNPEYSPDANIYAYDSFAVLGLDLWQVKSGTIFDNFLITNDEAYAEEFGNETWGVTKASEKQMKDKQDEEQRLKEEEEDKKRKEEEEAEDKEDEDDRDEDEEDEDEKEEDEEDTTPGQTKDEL

molecular target: human FVIII expressed in H9 CHO cells (human) (UniProt P00451); assay: affinity purification with mass spectrometry

binding, binds:
BiP/HSPA5 (endogenous in H9 CHO cells) (from UniProt G3I8R9 19-654)
CRT (endogenous in H9 CHO cells) (from UniProt Q8K3H7 18-417)
B1
